Measurements published in PMC6959235.
These are yes or no findings as the source states them, for the method shown. In cells and extracts the contact can be indirect.

Protein sequences, listed by entry. Tags and fused reporters are not part of them. Residues count along the entry.
UniProt Q14457: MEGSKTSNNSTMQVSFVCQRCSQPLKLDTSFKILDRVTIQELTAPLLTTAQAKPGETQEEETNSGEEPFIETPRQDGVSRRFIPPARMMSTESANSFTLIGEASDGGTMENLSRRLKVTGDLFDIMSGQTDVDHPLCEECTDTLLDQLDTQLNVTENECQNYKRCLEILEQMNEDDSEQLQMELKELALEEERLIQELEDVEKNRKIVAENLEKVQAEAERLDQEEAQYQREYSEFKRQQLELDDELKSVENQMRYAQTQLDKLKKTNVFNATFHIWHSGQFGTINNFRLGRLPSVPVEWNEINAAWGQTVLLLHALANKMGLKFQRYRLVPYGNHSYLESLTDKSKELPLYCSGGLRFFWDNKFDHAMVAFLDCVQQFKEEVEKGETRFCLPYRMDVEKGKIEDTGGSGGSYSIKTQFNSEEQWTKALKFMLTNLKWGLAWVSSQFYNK
UniProt O75127: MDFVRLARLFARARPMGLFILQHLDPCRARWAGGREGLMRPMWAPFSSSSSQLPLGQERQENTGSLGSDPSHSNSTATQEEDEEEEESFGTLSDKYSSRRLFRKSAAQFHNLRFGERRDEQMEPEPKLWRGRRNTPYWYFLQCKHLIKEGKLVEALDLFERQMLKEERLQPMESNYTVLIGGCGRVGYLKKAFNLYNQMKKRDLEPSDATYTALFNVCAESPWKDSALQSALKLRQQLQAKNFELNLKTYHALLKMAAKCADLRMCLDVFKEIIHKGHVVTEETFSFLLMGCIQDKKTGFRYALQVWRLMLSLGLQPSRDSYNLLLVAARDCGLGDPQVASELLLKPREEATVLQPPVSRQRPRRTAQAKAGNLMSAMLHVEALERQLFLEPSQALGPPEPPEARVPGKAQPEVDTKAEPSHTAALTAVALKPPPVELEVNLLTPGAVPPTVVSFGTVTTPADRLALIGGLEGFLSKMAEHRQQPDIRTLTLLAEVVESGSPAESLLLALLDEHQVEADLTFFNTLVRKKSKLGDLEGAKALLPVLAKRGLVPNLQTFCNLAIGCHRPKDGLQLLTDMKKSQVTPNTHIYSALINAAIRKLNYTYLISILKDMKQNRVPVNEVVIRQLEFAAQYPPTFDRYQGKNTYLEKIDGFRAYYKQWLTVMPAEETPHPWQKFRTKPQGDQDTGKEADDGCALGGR
UniProt A0A1S4EWW7, residues 22-255: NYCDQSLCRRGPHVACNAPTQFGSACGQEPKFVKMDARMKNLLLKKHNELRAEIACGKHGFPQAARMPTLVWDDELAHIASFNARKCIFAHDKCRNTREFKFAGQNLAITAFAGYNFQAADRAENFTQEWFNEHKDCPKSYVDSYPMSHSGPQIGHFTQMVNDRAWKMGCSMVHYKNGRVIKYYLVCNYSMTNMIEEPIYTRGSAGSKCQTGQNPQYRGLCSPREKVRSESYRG

Key:
[1] = biological target: human Beclin-1 (Myc tag) expressed in cells (human) (UniProt Q14457); assay: co-IP; only the binder purified
[2] = biological target: PTCD1 (PPR-containing protein-1) expressed in 293T cells (human) (UniProt O75127); assay: co-IP; only the binder purified

Aedes aegypti venom allergen-1 (AaVA-1), recombinant, from Drosophila S2 cells (from UniProt A0A1S4EWW7 22-255)
binding [1]: no binding
binding [2]: no binding
